According to patent US20130252821A1, “METHODS AND COMPOSITIONS FOR THE TREATMENT AND DIAGNOSIS OF DISEASES CHARACTERIZED BY VASCULAR LEAK, HYPOTENSION, OR A PROCOAGULANT STATE” (Beth Israel Deaconess Medical Center, Inc., priority 2005, published 2013):
At least one structure is not confirmed: it was looked up by name or label, or the drawing left a doubt.

How the values were obtained:
[1] = tested on: HMVEC-L monolayer; test: Measurement of endothelial permeability in vitro (FITC-albumin); format: cell-based, human; conditions: LY294002 10 μM added
Method: Coster Transwell membranes (Corning Inc. Corning, N.Y.) were coated with 0.5% Gelatin and cells were grown until confluence. Vehicle or proteins with FITC-albumin (1 mg/ml) was added to the luminal chamber for 4 hours, and samples were taken from both the luminal and abluminal chamber for fluorometry analysis. The readings were converted with the use of a standard curve to albumin concentration. These concentrations were then used in the following equation to determine the permeability coefficient of albumin (Pa).
[A] is abluminal concentration; t is time in seconds; A is area of membrane in cm^2; V is volume of abluminal chamber; and [L] is luminal concentration. siRNA Transfection: HMVEC-Ls were seeded and control small interfering RNA (siRNA) (Ambion, Ausin, Tex.) or siRNA directed to human p190RhoGAP (5′-[…]-3′ SEQ ID NO: 5 and 5′-[…]-3′ SEQ ID NO: 6) was transfected using SilentFect Lipid reagent (Bio-Rad) according to the manufacturer's instructions. The cells were used for each experiment 3 days after transfection. Almost 90-100% cells were transfected with siRNA (checked by fluorescent labeled siRNA). Down-regulation of p190RhoGAP was verified by immunoblotting. We tested two different siRNA for the experiment and obtained similar results.

[2] = tested on: HMVEC-L; test: Immunohistochemistry of HMVEC-L (F-actin, MLC-P, VE-cadherin); format: cell-based, human; conditions: LY294002 10 μM
Method: HMVEC-L were grown to confluent on glass coverslips coated with 0.1% gelatin (Attachment factor, Cascade Biologics, Portland, Oreg.) in 5% FBS/EGM2. […] We used rhodamine phalloidin (Molecular Probe) for F-actin staining and TOPRO®-3-iodine (Molecular Probe) for nuclear staining. Fluorescence images were obtained using a Bio Rad MRC confocal fluorescence microscope.

## O=c1cc(N2CCOCC2)oc2c(-c3ccccc3)cccc12 [LY294002, reference compound]
[1]
  protective effect of Ang-1 against endotoxin permeability: lost
[2]
  effect on the structural effects of Ang-1: reversed these effects of Ang-1
